PubChem BioAssay AID504808, Drosophila RNAi Screening Center – 2011

- Aim: 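Fly genes required to hold E2F transcription in check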 (primary screen)
- System: Drosophila S2 cells
- Reagent: long dsRNA against Drosophila genes
- Detection: 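Firefly luciferase driven by E2F sites, normalised to Renilla luciferase on the same minimal promoter, measured by plate reader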
- Reading the numbers: E2F firefly: higher = more E2F reporter activity; Renilla normaliser: higher = more normaliser reporter signal
- Rule for the call: 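a knock-down counted as active when the firefly/Renilla E2F signal rose above 50%, a threshold chosen arbitrarily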
In all, the deposit lists about 21,000 reagents; this is an unselected part of those that have a named target and a result. Over the whole deposit, 18 (0.084%) are marked active. 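Raw counts without plate normalisation, one of two replicates; the ratio scores behind the calls were not deposited.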 The numbers tell different reagents against one gene apart. Names joined by + are all predicted targets of the reagent. Not stated in the record: the amount of reagent, the time to read-out.

Target gene,dsRNA no.,"E2F firefly, rep 1","Renilla normaliser, rep 1",activity call
CG3014,1,1.26e5,6131,inactive
CG6290,1,1.52e5,5176,inactive
Dhc93AB,1,1.34e5,6881,inactive
Fbxo42,1,80328,3257,inactive
Rab18,1,7775,764,inactive
MED30,1,74811,3271,inactive
CG13054,1,1.53e5,9169,inactive
Vps25,1,1.39e5,4636,inactive
Zip102B,1,1.17e5,5159,inactive
CG3494,1,1.10e5,4394,inactive
CG12986,1,2.18e5,10659,inactive
cnn,1,1.37e5,4927,inactive
cnn,2,94131,4021,inactive
Paf-AHalpha,1,1.58e5,6187,inactive
Naa80,1,1.49e5,5854,inactive
Rsbp15,1,1.40e5,6522,inactive
CG13566,1,92791,4190,inactive
CG32773 (retired record),1,69894,2335,inactive
Spase25,1,8125,784,inactive
CG5255,1,1.15e5,5995,inactive
vlc,1,1.07e5,4614,inactive
Muc30E,1,1.22e5,6520,inactive
FIG4,1,1.02e5,3946,inactive
Ir11a,1,1.21e5,6139,inactive
SWIP,1,1.49e5,6018,inactive
Nup58,1,1.34e5,6393,inactive
CG3176 + CR18166 + CG32817,1,79591,2595,inactive
CG3176 + CR18166 + CG32817,2,74103,2338,inactive
CG3176 + CR18166 + CG32817,3,1855,844,inactive
CG31606,1,1.25e5,6248,inactive
CG15170,1,1.09e5,4228,inactive
brv2,1,1.50e5,8497,inactive
aos,1,1.74e5,8243,inactive
CalpA,1,1.46e5,4982,inactive
Osi11,1,1.26e5,5663,inactive
Kdm4B,1,4265,171,inactive
CG42656,1,71155,4152,inactive
Rgk3,1,1.11e5,4400,inactive
Rgk3,2,1.13e5,4692,inactive
Rgk3,3,1.11e5,4396,inactive
Rgk3,4,99725,4185,inactive
Pli,1,77498,3183,inactive
Cyp6a14 (retired record),1,1.41e5,5224,inactive
CG13177,1,97453,3873,inactive
Lipt1,1,1.60e5,5287,inactive
Lipt1,2,67722,3537,inactive
Or30a,1,1.69e5,5991,inactive
nec,1,1.33e5,4710,inactive
CG2116,1,7302,772,inactive
VhaAC39-2,1,1.04e5,6438,inactive
GAA1,1,8462,800,inactive
tup,1,82915,4197,inactive
CG12439,1,1.52e5,5538,inactive
Opbp,1,99873,4868,inactive
Vps39,1,77399,4173,inactive
CG6414,1,1.16e5,5010,inactive
DhpD,1,78823,3760,inactive
CG42346,1,1.24e5,7040,inactive
CG42346,2,1.26e5,7093,inactive
Or2a,1,1.11e5,5582,inactive
Cht5,1,78551,3379,inactive
CG13949,1,1.65e5,6309,inactive
Msr-110,1,68261,2942,inactive
bab1,1,1.00e5,4063,inactive
bab1,2,96177,3296,inactive
CG12521,1,1.23e5,6975,inactive
Qsox3,1,1.55e5,7963,inactive
Lsm12a,1,72065,3993,inactive
TrissinR,1,1.39e5,4639,inactive
TrissinR,2,1.33e5,4443,inactive
TrissinR,3,1.73e5,5718,inactive
CG3703,1,1.32e5,6249,inactive
CG3703,2,1.25e5,6673,inactive
CG3703,3,1.32e5,5850,inactive
CG10177,1,96414,5756,inactive
CG42747,1,1.03e5,4062,inactive
CG42747,2,91616,3870,inactive
CG14052,1,63381,3254,inactive
CG14052,2,1.33e5,6082,inactive
Srp68,1,65080,3628,inactive
CG7900,1,1.54e5,6604,inactive
bs,1,1.10e5,4255,inactive
CG32576,1,84053,2638,inactive
CG8673,1,1.40e5,4580,inactive
vimar,1,80335,4076,inactive
unc80,1,1.19e5,5372,inactive
jumu,1,89118,5133,inactive
CG4781,1,1.12e5,4146,inactive
Sod1,1,98565,5956,inactive
Cpr76Bb,1,1.50e5,8440,inactive
Alas,1,78080,3723,inactive
Moca-cyp,1,1875,900,inactive
Hpf1,1,67307,3797,inactive
CG7968,1,94222,4759,inactive
CG6793,1,1.37e5,6740,inactive
Remo,1,1.06e5,4794,inactive
Ube3a,1,69282,3547,inactive
MED11,1,72137,6506,inactive
gish,1,70752,3518,inactive
wls,1,87351,3694,inactive
CG9663,1,91611,3614,inactive
CG14154,1,1.17e5,4702,inactive
Lasp,1,1.60e5,7530,inactive
PIG-Wb,1,88827,4072,inactive
Cyp304a1,1,1.08e5,6667,inactive
CG7024,1,1.23e5,6381,inactive
Rbp1,1,66500,3528,inactive

13 entries already listed, arranged by “E2F firefly, rep 1”, ascending.
Target gene,dsRNA no.,"E2F firefly, rep 1","Renilla normaliser, rep 1",activity call
CG3176 + CR18166 + CG32817,3,1855,844,inactive
CG3176 + CR18166 + CG32817,2,74103,2338,inactive
CG3176 + CR18166 + CG32817,1,79591,2595,inactive
FIG4,1,1.02e5,3946,inactive
CG15170,1,1.09e5,4228,inactive
Ir11a,1,1.21e5,6139,inactive
CG31606,1,1.25e5,6248,inactive
Osi11,1,1.26e5,5663,inactive
Nup58,1,1.34e5,6393,inactive
CalpA,1,1.46e5,4982,inactive
SWIP,1,1.49e5,6018,inactive
brv2,1,1.50e5,8497,inactive
aos,1,1.74e5,8243,inactive
